Laboratory results: PubChem BioAssay AID504594 (Broad Institute, 2011)
“And” between values parts separate entries of the source, which are not always exact repeats. Equal entries are not always repeated. Hit rate of the full screen: of about 2,000 compounds, fewer than 10 were called active.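 Rule for the calls: active = growth inhibition of at least 75% in every replicate, which also brings the mean inhibition to 75% or more; inconclusive = mean inhibition 75% or more but some replicate under 75%; inactive = the rest.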 This is one part of the list.

Test: reduced viability of yeast carrying PfHsp90 – S. cerevisiae, BacTiter-Glo luminescence, antimalarial PfHsp90 inhibitor project, primary screen (AID 504594);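 note: 0% = DMSO neutral control wells and 100% = 20 µM radicicol control wells; higher value means stronger growth inhibition because the sign is flipped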
Settings: S. cerevisiae expressing PfHsp90, BacTiter-Glo growth, 48 h; at 9.4 µM; hits give high values
With `CCCc1cc(C(N)=S)ccn1` the growth inhibition was inactive: 1.14%.
In the case of `Cc1ccc2[nH]c3c(c2c1)CN(C)CC3`, the growth inhibition is reported as inactive: -12%.
In the case of `CC(=O)c1cc2c(cc1NC(=O)c1ccco1)OCCO2`, the growth inhibition is reported as inactive: 2.24%.
For `CC(C)CCOCC(=O)Nc1cccc(C(=O)O)c1`, the growth inhibition was inactive: 1.88%.
With `CC(=O)OC(CC(=O)O)C[N+](C)(C)C` (configuration not stated) the growth inhibition was inactive: -9.33%.
With `CC1(C)Cc2ccccc2C(C(Cc2ccccc2)C(N)=O)=N1` (configuration not stated) the growth inhibition was inactive: -4.58%.
For `COc1ccc2oc(C)c(C(N)=O)c2c1`, the growth inhibition was inactive: -0.848%.
For `CN1CCN(CC/C=C2/c3ccccc3Sc3ccc(S(=O)(=O)N(C)C)cc32)CC1`, the growth inhibition was inactive: -10.9%.
In the case of `CN1CCC(=C2c3ccccc3C=Cc3ccccc32)CC1`, the growth inhibition is reported as inactive: -8.51%.
With `Cn1cc(CN(CCO)Cc2cccs2)c(-c2cccc(Cl)c2)n1` the growth inhibition was inactive: -3.65%.
In the case of `CC[N+](C)(C)c1cccc(O)c1`, the growth inhibition is reported as inactive: -5.71%.
With `COc1ccc(C(=O)NCC2OCCc3ccccc32)cc1` (configuration not stated) the growth inhibition was inactive: -3.22%.
With `CCCCN(CCCC)CCCOC(=O)c1ccc(N)cc1` the growth inhibition was inactive: 2.37%.
With `O=C(NCc1ccc2c(c1)OCO2)c1ccc2c(c1)OCCO2` the growth inhibition was inactive: -10.6%.
In the case of `O=C(O)CCCCCCCC(=O)O`, the growth inhibition is reported as inactive: -4.17%.
With `O=C(NC(=S)Nc1ccc2c(c1)OCCO2)c1ccccc1F` the growth inhibition was inactive: 11.3%.
For `NS(=O)(=O)c1cc(C2(O)NC(=O)c3ccccc32)ccc1Cl` (configuration not stated), the growth inhibition was inactive: -8.46%.
With `COc1ccc(NC(=O)C2CCCN2C(=O)OC(C)(C)C)cc1` (configuration not stated) the growth inhibition was inactive: -4.53%.
With `CC(=O)Nc1ccc(OS(=O)(=O)c2c(C)cc(C)cc2C)cc1` the growth inhibition was inactive: 10.9%.
For `CC(=O)OCC(=O)[C@@]1(O)CC[C@H]2[C@@H]3CCC4=CC(=O)CC[C@]4(C)[C@H]3[C@@H](O)C[C@@]21C`, the growth inhibition was inactive: -11%.
In the case of `COc1ccc(OC)c(-c2oc3ccccc3c(=O)c2O)c1`, the growth inhibition is reported as inactive: -8.17%.
In the case of `Cc1nc2ccccc2c(=O)n1N`, the growth inhibition is reported as inactive: -6.14%.
With `N#CCC(N)=C(C#N)C#N` the growth inhibition was inactive: 3.45%.
With `CCN(CC)CCOC(=O)C1(C2CCCCC2)CCCCC1` the growth inhibition was inactive: -2.13%.
For `CN(C)CCCN1c2ccccc2Sc2ccc(C(F)(F)F)cc21`, the growth inhibition was inactive: 2.24%.
In the case of `Cc1ccc2c(c1)c1c(n2C)C(=O)CCC1`, the growth inhibition is reported as inactive: 10.2%.
For `CCNC1=C(Cl)C(=O)c2ccccc2C1=O`, the growth inhibition was inactive: -6.29%.
In the case of `COc1c(O)ccc2c1CN1CCc3cc4c(cc3C1C2)OCO4` (configuration not stated), the growth inhibition is reported as inactive: -1.12%.
For `COC(=O)C1=C(C)NC(C)=C([N+](=O)[O-])C1c1ccccc1C(F)(F)F` (configuration not stated), the growth inhibition was inactive: -11%.
With `Nc1ccc(-c2nc3ncccc3o2)c(Cl)c1` the growth inhibition was inactive: -2.71%.
With `O=C1C2CC=C(Cl)CC2C(=O)N1CCc1c[nH]c2ccccc12` (configuration not stated) the growth inhibition was inactive: 17.8%.
For `CCn1cc(CN2N=C(C)CC2c2ccccc2)c(C)n1` (configuration not stated), the growth inhibition was inactive: 4.11%.
With `CC[N+](C)(CC)CCOC(=O)C(O)(c1ccccc1)C1CCCCC1` (configuration not stated) the growth inhibition was inactive: -1.82%.
For `CCOc1ccccc1Oc1coc2cc(OCC(=O)O)ccc2c1=O`, the growth inhibition was inactive: -4.8%.
For `C/C=C/c1ccc(OCCCCN2CC(C)CC(C)C2)c(OC)c1` (configuration not stated), the growth inhibition was inactive: 8.04%.
With `O=C(Cc1ccc(Br)cc1)c1ccc(O)cc1O` the growth inhibition was inactive: -5.8%.
In the case of `COc1cc(/C=C/C(=O)O)cc(S(=O)(=O)NCCCO)c1OC`, the growth inhibition is reported as inactive: 9.49%.
In the case of `CN(C)c1ccc(C(CN)c2c[nH]c3ccccc23)cc1` (configuration not stated), the growth inhibition is reported as inactive: 2.99%.
For `O=C(NC(=S)Nc1ccc(N2CCN(C(=O)c3ccccc3)CC2)cc1)c1cccs1`, the growth inhibition was inactive: 6.16%.
For `COc1ccc2[nH]c(=O)c3c(c2c1)OC(C)(C)C=C3`, the growth inhibition was inactive: 21.2%.
With `Cc1ccc(-c2nnc(-c3ccc4c(c3)OCO4)o2)cc1` the growth inhibition was inactive: -1.21%.
With `O=C(O)Cc1ccc(-c2ccccc2)cc1` the growth inhibition was inactive: -3.02%.
For `CCOC(=O)C1=C2c3ccc4ccccc4c3CC(C)(C)N2C(=O)C1=O`, the growth inhibition was inactive: -0.655%.
For `C[C@@H]1C[C@H]2[C@@H]3C[C@H](F)C4=CC(=O)C=C[C@]4(C)[C@@]3(F)[C@@H](O)C[C@]2(C)[C@@]1(O)C(=O)CO`, the growth inhibition was inactive: 2.68%.
With `O=C(/C=C/c1ccc(F)cc1)N1CC[C@@]2(O)CCCC[C@H]2C1` the growth inhibition was inactive: 1.03%.
With `O=C1N=c2ccccc2=C1c1[nH]c(=S)[nH]c1O` the growth inhibition was inactive: -4.23%.
In the case of `COc1ccccc1N1C(=O)C2CC(C)=C(C)CC2C1=O` (configuration not stated), the growth inhibition is reported as inactive: 4.44%.
For `O=C1C(O)CC2c3ccccc3CC3(CCCC3)N12` (configuration not stated), the growth inhibition was inactive: -7.1%.
With `CCCCCCCCCC(=O)OCC(O)CO` (configuration not stated) the growth inhibition was inactive: -11.4%.
With `CN1CCN(C2=Nc3ccccc3Oc3ccc(Cl)cc32)CC1` the growth inhibition was inactive: 2.19%.
For `Cc1cccc(N2C(=O)C3C(c4ccccc4)OC4(C(=O)c5ccccc5C4=O)C3C2=O)c1` (configuration not stated), the growth inhibition was inactive: -4.85%.
With `Cc1c(Cc2ccccc2)c(=O)oc2c(CN(C)C)c(O)c(Cl)cc12` the growth inhibition was inactive: -2.33%.
With `COc1ccc(-c2cc(=O)oc3cc(OC(C)C(=O)O)ccc23)cc1` (configuration not stated) the growth inhibition was inactive: -0.213%.
For `COC(=O)[C@H]1[C@H]2C[C@@H]3c4[nH]c5cc(OC)ccc5c4CCN3C[C@H]2C[C@@H](OC(=O)c2ccc(N)cc2)[C@@H]1OC`, the growth inhibition was inactive: -9.87%.
In the case of `CC(C)CC(NC(=O)CNC(=O)C1O[C@@H]2OC(C)(C)O[C@@H]2[C@H]2OC(C)(C)O[C@@H]12)C(=O)O` (some centres not stated), the growth inhibition is reported as inactive: 2.68%.
In the case of `COc1ccc2c(C=O)cn(C)c2c1`, the growth inhibition is reported as inactive: -2.92%.
For `CSCC[C@H](NC(=O)NC1CCCC1)C(=O)O`, the growth inhibition was inactive: -15.5%.
For `CC(=O)C1=C(NC(=O)c2ccc(C(F)(F)F)cc2)C[C@@H]2[C@H]1C2(C)C`, the growth inhibition was inactive: -3.86%.
For `COc1ccc(CC(=O)Nc2cccc(C(=O)Nc3ccccc3C(=O)O)c2)cc1OC`, the growth inhibition was inactive: -0.658%.
With `O=C(O)C1CSC(c2ccco2)N1` (configuration not stated) the growth inhibition was inactive: -10.3%.
In the case of `CC(C)(C)N1NC2(CCCCC2)NC1=S`, the growth inhibition is reported as inactive: -6.24%.
With `Cc1cc(=O)oc2c(CN(C)Cc3ccccc3)c(O)ccc12` the growth inhibition was inactive: -5.11%.
With `O=C(O)c1ccc(-c2ccc(O)c(F)c2)cc1` the growth inhibition was inactive: -3.08%.
In the case of `NC(=O)C1CCCNC1` (configuration not stated), the growth inhibition is reported as inactive: -14.5%.
With `CCCCOn1c(C)c(C(C)=O)c2c3no[n+]([O-])c3ccc21` the growth inhibition was inactive: -14.4%.
For `CC(C)COC(=O)C1C(=O)CC(C)(O)C(C(=O)OCC(C)C)C1c1cccnc1` (configuration not stated), the growth inhibition was inactive: 7.28%.
For `Nc1nc(Cl)nc2c1ncn2[C@@H]1O[C@H](CO)[C@@H](O)[C@H]1O`, the growth inhibition was inactive: -0.0217%.
With `CCOC(=O)c1oc2cc(O)cc(C)c2c(=O)c1-c1cscn1` the growth inhibition was inactive: 7.26%.
With `COc1ccc(N2C(=O)C3C(C2=O)C(C(=O)c2ccccc2)N2CCCC32)cc1` (configuration not stated) the growth inhibition was inactive: 3.07%.
In the case of `COc1cccc(C2CCCN2Cc2nc(CCC(C)C)no2)c1` (configuration not stated), the growth inhibition is reported as inactive: 11.4%.
In the case of `O=C1N[C@@H](Cc2cnc[nH]2)C(=O)N2CCC[C@@H]12`, the growth inhibition is reported as inactive: 1.69%.
With `C[C@@H]1C[C@H]2[C@@H]3CCC4=CC(=O)C=C[C@]4(C)[C@@]3(F)[C@@H](O)C[C@]2(C)[C@@]1(O)C(=O)COP(=O)(O)O` the growth inhibition was inactive: 19.7%.
With `COc1ccc(C(=O)NC(=O)NC2(C(Cl)(Cl)Cl)OCCO2)cc1` the growth inhibition was inactive: -0.449%.
In the case of `Cc1ccc(CSCC(=O)NCCCN2CCOCC2)cc1`, the growth inhibition is reported as inactive: -3.11%.
For `CC(=O)C1=C(Nc2ccc(C)cc2)CC(C)(O)C(C(C)=O)C1c1ccco1` (configuration not stated), the growth inhibition was inactive: -8.53%.
In the case of `O=[N+]([O-])c1ccc2cn[nH]c2c1`, the growth inhibition is reported as inactive: -6.28%.
For `CCn1c(=N)c(C(=O)NC)cc2c(=O)n3cccc(C)c3nc21`, the growth inhibition was inactive: 10.4%.
With `OCCN(CCO)c1nc(N2CCCCC2)c2nc(N(CCO)CCO)nc(N3CCCCC3)c2n1` the growth inhibition was inactive: -3.45%.
With `Cc1ccc(C2CC(=O)C(C=NCCN3CCN(CC(=O)Nc4cc(C)cc(C)c4)CC3)=C(O)C2)cc1` (configuration not stated) the growth inhibition was inactive: 5.52%.
In the case of `CC(C)C12CN3CC(C(C)C)(CN(C1)C3c1ccccc1)C2O` (configuration not stated), the growth inhibition is reported as inactive: 12.1%.
For `CCOC(=O)COc1ccc2c(=O)c(-c3ccccc3)coc2c1`, the growth inhibition was inactive: 0.717%.
For `NC(N)=NC(=O)c1nc(Cl)c(N)nc1N`, the growth inhibition was inactive: -0.187%.
In the case of `CC(=O)CCc1oc2ccccc2c1-c1ccccc1`, the growth inhibition is reported as inactive: -3.53%.
With `COc1ccc(Cc2noc(CN(C)CCN3CCc4ccccc4C3)n2)cc1OC` the growth inhibition was inactive: -15.1%.
For `CC(C)C12CN3CC(C(C)C)(CN(C1)C31C(=O)Nc3ccccc31)C2=O` (configuration not stated), the growth inhibition was inactive: 12.6%.
In the case of `CCN(CC)CC(=O)Nc1c(C)cccc1C`, the growth inhibition is reported as inactive: -1.23% and inactive: 1.16%.
With `CC(=O)CSc1ncnc2c1cnn2-c1ccccc1` the growth inhibition was inactive: 1.69%.
For `COc1ccc(C(=O)CC2OC(=O)c3c2ccc(OC)c3OC)cc1` (configuration not stated), the growth inhibition was inactive: 5.73%.
In the case of `CC(=O)OCC(=O)[C@@]12OC(C)(C)O[C@@H]1C[C@H]1[C@@H]3C[C@H](F)C4=CC(=O)C=C[C@]4(C)[C@@]3(F)[C@@H](O)C[C@@]12C`, the growth inhibition is reported as inactive: 7.75%.
For `COc1ccc(/C=C\c2cc(OC)c(OC)cc2CC[N+](C)(C)C)cc1OC`, the growth inhibition was inactive: -8.14%.
For `c1ccc2c(CC3=NCCN3)cccc2c1`, the growth inhibition was inactive: 8.61%.
In the case of `O=C(N/N=C\c1cc([N+](=O)[O-])ccc1N1CCOCC1)c1ccccn1`, the growth inhibition is reported as inactive: -5.86%.
For `CCOc1ccc(C(=O)N2CCCC2C(=O)O)cc1` (configuration not stated), the growth inhibition was inactive: -15.5%.
With `Cc1cn([C@H]2C=C[C@@H](CO)O2)c(=O)[nH]c1=O` the growth inhibition was inactive: -9.36%.
For `CC(=O)NS(=O)(=O)c1ccc(N)cc1`, the growth inhibition was inactive: -2.29%.
With `O=C1CC(c2ccc(O)cc2)Oc2cc(O)cc(O)c21` (configuration not stated) the growth inhibition was inactive: -2.96%.
With `Cn1cc(CN2CCCC(CO)(Cc3cccc(Cl)c3)C2)cn1` (configuration not stated) the growth inhibition was inactive: -7.83%.
